Results taken from US20210206856A1.
Changes are numbered by the printed parent chain. No constants are given. Whether binding was seen depends on the method and setting. A result given as binding can be weak or reduced; the word gives no strength.

Biological target: cyno MAdCAM protein (cyno)
Assay: ELISA

B1: MAdCAM Antibody Table 1 Clone 12 (scFv)
scFv: QVQLVQSGAEVKKPGASVKVSCKASGYTFTGYYMHWVRQAPGQGLEWMGWIGPNSGDTNYAQKFQGRVTMTRDTSTSTVYMELSSLRSEDTAVYYCARDLDHNWYFDLWGRGTLVTVSSGGGGSGGGGSGGGGSGGGGSDIVMTQSPLSLPVTPGEPASISCRSSQSLLHSNGYNYLDWYLQKPGQSPQLLIYSSSNRAPGVPDRFSGSGSGTDFTLKISRVEAEDVGVYYCMQALHIPLTFGGGTKVEIK
binding: binds

B2: MAdCAM Antibody Table 1 Clone 13 (scFv)
scFv: EVQLLESGGGLVQPGGSLRLSCAASGFTFDDYAMHWVRQAPGKGLEWVSYIDASGTTIYYADSVKGRFTISRDNSKNTLYLQMNSLRAEDTAVYYCAKDQAAAGYWYFDLWGRGTLVTVSSGGGGSGGGGSGGGGSGGGGSDIQMTQSPSSLSASVGDRVTITCQASQDISNYLNWYQQKPGKAPKLLIYKASTLESGVPSRFSGSGSGTDFTLTISSLQPEDFATYYCQQSYSTPITFGQGTRLEIK
binding: binds

B3: MAdCAM Antibody Table 1 Clone 14 (scFv)
scFv: QVQLVQSGAEVKKPGSSVKVSCKASGYTFTDYHIHWVRQAPGQGLEWMGGIVPRSGSTTYAQKFQGRVTITADESTSTAYMELSSLRSEDTAVYYCAKDESSGWYYFDYWGQGTLVTVSSGGGGSGGGGSGGGGSGGGGSDIVMTQSPLSLPVTPGEPASISCRSSQSLLHSNGYNYLDWYLQKPGQSPQLLIYSAYNRASGVPDRFSGSGSGTDFTLKISRVEAEDVGVYYCMQALQTPLTFGQGTKVEIK
binding: binds

B4: MAdCAM Antibody Table 1 Clone 15 (scFv)
scFv: QVQLVQSGAEVKKPGSSVKVSCKASGYTFTNYYMHWVRQAPGQGLEWMGGIIPIVDRVKYAQKFQGRVTITADESTSTAYMELSSLRSEDTAVYYCAKGRYTVNYYYGMDVWGQGTTVTVSSGGGGSGGGGSGGGGSGGGGSDIQMTQSPSSLSASVGDRVTITCQANQDISNYLNWYQQKPGKAPKLLIYRASKLEAGVPSRFSGSGSGTDFTLTISSLQPEDFATYYCQQSSEIPYSFGQGTKLEIK
binding: binds

B5: MAdCAM Antibody Table 1 Clone 16 (scFv)
scFv: EVQLLESGGGLVQPGGSLRLSCAASGFTFEDYAMHWVRQAPGKGLEWVSYLNSDGGSTSYADSVKGRFTISRDNSKNTLYLQMNSLRAEDTAVYYCAKDYCTNGVCAFDYWGQGTLVTVSSGGGGSGGGGSGGGGSGGGGSDIQMTQSPSSLSASVGDRVTITCRASQSISTYLNWYQQKPGKAPKLLIYDASNLETGVPSRFSGSGSGTDFTLTISSLQPEDFATYYCQQSYTIPITFGQGTRLEIK
binding: binds

B6: MAdCAM Antibody Table 1 Clone 17 (scFv)
scFv: EVQLLESGGGLVQPGGSLRLSCAASGFTFSDSAMHWVRQAPGKGLEWVSAISGSGSTIYYADSVKGRFTISRDNSKNTLYLQMNSLRAEDTAVYYCVSDIAVAGHWYFDLWGRGTLVTVSSGGGGSGGGGSGGGGSGGGGSDIQMTQSPSSLSASVGDRVTITCRASQSISTFLNWYQQKPGKAPKLLIYAASRLEGGVPSRFSGSGSGTDFTLTISSLQPEDFATYYCQQANSFPLTFGPGTKVDIK
binding: binds

B7: MAdCAM Antibody Table 1 Clone 21 (scFv)
scFv: EVQLLESGGGLVQPGGSLRLSCAASGFTFSNAWMSWVRQAPGKGLEWVSTIVGNGGATYYADSVKGRFTISRDNSKNTLYLQMNSLRAEDTAVYYCARDNPLRWQGMDVWGQGTLVTVSSGGGGSGGGGSGGGGSGGGGSDIQMTQSPSSLSASVGDRVTITCRASQDISNYLNWYQQKPGKAPKLLIYAASSLQSGVPSRFSGSGSGTDFTLTISSLQPEDFATYYCQQSYSIPPTFGPGTKVDIK
binding: binds

B8: MAdCAM Antibody Table 1 Clone 25 (scFv)
scFv: QVQLVQSGAEVKKPGASVKVSCKASGYTLTTWYMYWVRQAPGQGLEWMGWINPNRGATNYAQKFQGRVTMTRDTSTSTVYMELSSLRSEDTAVYYCAKGDLWGAMDVWGQGTLVTVSSGGGGSGGGGSGGGGSGGGGSDIQMTQSPSSLSASVGDRVTITCRASDNIGSWLAWYQQKPGKAPKLLIYAASSLQSGVPSRFSGSGSGTDFTLTISSLQPEDFATYYCQQGYSTPPTFGQGTKVEIK
binding: binds

B9: MAdCAM Antibody Table 1 Clone 26 (scFv)
scFv: B8 scFv with L113T
binding: binds
